From patent US20040157280A1, “Antibody mediated ozone generation” (priority 2001, published 2004) come the findings set out here.

The structures appear in SMILES notation.

The data set is described as follows: Oxidation of indigo carmine 1 and ^18O incorporation into 2 by different reactive oxygen species. The data set is classed as physicochemical.

Regarding `O=[O+][O-]` [Clone O3, ozone], the “^18O incorporation into 2” value (H2^18O (>95%) PB) is given as “Yes”. In addition, the “Reaction to form 2” value (oxidant added to indigo carmine 1 (1 mM), PB pH 7.4) was “yes”.
